# Part of at least one peptide drawing is inferred or uncertain, most often the ends. Square brackets hold non-standard residues; d marks the D form. Peptide text beside a SMILES is read from it. * marks the point of attachment. X9 = O=C([C@H]1OC(O)[C@H](O)[C@@H](O)[C@@H]1O)*; Arg(Me) = CNC(=N)NCCC[C@H](N)C(=O)O; azaGly = NNC(=O)O
# Protein sequences, listed by entry. Tags and fused reporters are not part of them.
# UniProt Q969F8, whole entry L364H: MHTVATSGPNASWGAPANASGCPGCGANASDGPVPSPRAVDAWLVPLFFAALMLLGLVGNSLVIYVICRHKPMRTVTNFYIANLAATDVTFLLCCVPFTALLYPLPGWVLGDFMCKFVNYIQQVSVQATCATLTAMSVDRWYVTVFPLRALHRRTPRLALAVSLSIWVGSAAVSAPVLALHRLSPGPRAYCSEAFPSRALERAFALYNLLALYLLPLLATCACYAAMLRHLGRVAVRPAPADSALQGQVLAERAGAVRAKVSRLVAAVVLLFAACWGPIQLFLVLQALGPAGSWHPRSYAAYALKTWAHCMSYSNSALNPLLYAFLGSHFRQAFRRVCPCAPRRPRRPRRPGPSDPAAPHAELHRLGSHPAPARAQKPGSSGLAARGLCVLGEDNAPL
# Legend:
# immature rats = assay: Induction of ovulation by human metastin in immature rats; assay type: in vivo
# mature male rats = assay: Gonadotropin-releasing effect of human metastin in mature male rats; assay type: in vivo; conditions: 35 nmol s.c., 1, 2, 4 hours after injection
# hOT7T175 = hOT7T175 (Homo sapiens, UniProt Q969F8, L364H); assay: hOT7T175 receptor binding activity: binding inhibition of Cy-5-labeled metastin (40-54) on hOT7T175-expressed CHO cells; design: expressed in transfected cells; host or cells: CHO cells; conditions: read-out: IC50 (M), binding inhibition of Cy-5-labeled metastin (40-54), 1 nM Cy-5-labeled metastin (40-54), 1 hour
# Method: Assay for hOT7T175 Receptor Binding Activity
# h0T7T175-Expressed CHO cells were cultured in MEM-cc medium (nucleic acid-free) containing 10% dialyzed serum. The medium was removed and the adherent cells were washed with PBS. Then, PBS containing 5 mM EDTA was added and the cells were scraped from a flask with a cell scraper. […] To each well of a 96-Well Black Clear Bottom Plate (Applied Biosystems, Inc.), 10 μL of assay buffer containing 1% dimethylsulfoxide was added to examine total binding, 10 μL of 10 μM non-labeled peptide (having the same amino acid sequence as that of the labeled one) solution diluted with assay buffer to examine non-specific binding, and 10 μL of a test compound diluted with assay buffer to examine the binding inhibition activity of the test compound, respectively. Furthermore, 90 μL each of the cell suspension was dispensed to each well. […] The specific binding is a value obtained by subtracting the non-specific binding from the total binding.
SMILES,"number of oocytes in average per rat (immature rats; Group B: eCG-primed immature female rats, 20 nmol/animal s.c.)","number of oocytes in average per rat (immature rats; Group C: eCG-primed immature female rats, 6.67 nmol/animal s.c.)",blood FSH level (mature male rats),blood LH level (mature male rats),blood testosterone level (mature male rats),IC50 (hOT7T175)
"CC[C@H](C)[C@H](NC(=O)[C@H](CCC(N)=O)NC(=O)[C@H](CCCNC(=N)N)NC(=O)[C@H](CO)NC(=O)[C@H](Cc1c[nH]cn1)NC(=O)[C@@H]1CCCN1C(=O)[C@H](C)NC(=O)[C@H](CO)NC(=O)[C@H](CC(C)C)NC(=O)CNC(=O)[C@@H]1CCCN1C(=O)[C@H](CCC(N)=O)NC(=O)[C@H](CCC(N)=O)NC(=O)[C@H](CCCNC(=N)N)NC(=O)[C@H](CO)NC(=O)CNC(=O)[C@H](CO)NC(=O)[C@H](CO)NC(=O)[C@H](CCC(=O)O)NC(=O)[C@@H]1CCCN1C(=O)[C@@H]1CCCN1C(=O)[C@@H]1CCCN1C(=O)[C@H](CO)NC(=O)[C@H](CC(C)C)NC(=O)[C@H](CO)NC(=O)[C@@H](NC(=O)CN)[C@@H](C)O)C(=O)N1CCC[C@H]1C(=O)N[C@@H](C)C(=O)N1CCC[C@H]1C(=O)N[C@@H](CCC(N)=O)C(=O)NCC(=O)N[C@@H](C)C(=O)N[C@H](C(=O)N[C@@H](CC(C)C)C(=O)N[C@H](C(=O)N[C@@H](CCC(N)=O)C(=O)N[C@@H](CCCNC(=N)N)C(=O)N[C@@H](CCC(=O)O)C(=O)N[C@@H](CCCCN)C(=O)N[C@@H](CC(=O)O)C(=O)N[C@@H](CC(C)C)C(=O)N1CCC[C@H]1C(=O)N[C@@H](CC(N)=O)C(=O)N[C@@H](Cc1ccc(O)cc1)C(=O)N[C@@H](CC(N)=O)C(=O)N[C@@H](Cc1c[nH]c2ccccc12)C(=O)N[C@@H](CC(N)=O)C(=O)N[C@@H](CO)C(=O)N[C@@H](Cc1ccccc1)C(=O)NCC(=O)N[C@@H](CC(C)C)C(=O)N[C@@H](CCCNC(=N)N)C(=O)N[C@@H](Cc1ccccc1)C(N)=O)C(C)C)C(C)C [Compound No. 1, Metastin]",31.8 oocytes,27.6 oocytes,began to significantly increase and reached the maximum after 2 hours,began to significantly increase 1 hour after and reached the maximum after 2 hours,rapid increase in 1 hour after the metastin injection,–
"CNC(=N)NCCC[C@H](NC(=O)[C@H](CC(C)C)NC(=O)NNC(=O)[C@H](Cc1ccccc1)NC(=O)[C@H](CO)NC(=O)[C@H](CC(N)=O)NC(=O)[C@H]1OC(O)[C@H](O)[C@@H](O)[C@@H]1O)C(=O)N[C@@H](Cc1ccccc1)C(N)=O (stereo partly drawn) [Compound No. 328, D-Glucuronyl-Asn-Ser-Phe-AzaGly-Leu-Arg(Me)-Phe-NH2] (X9-NSF[azaGly]L[Arg(Me)]F-NH2)",–,–,–,–,–,4.7e-07 M
